Not every detail of the peptide structures is certain; ends, links or a residue may be inferred. Where a SMILES comes first, the peptide text is derived from it. [ ]: non-standard residue; d: D form. Cit = NC(=O)NCCC[C@H](N)C(=O)O
What was measured:
[1] = test system: filaggrine recombinante citrullinée par déimination; test: Immunoblot competition: inhibition by peptides of the reaction of RA patient serum anti-filaggrin antibodies with recombinant citrullinated filaggrin; format: binding; conditions: peptide at 40 µl/ml, overnight, 4°C
[2] = test system: filaggrine acido/neutre humaine; test: Immunoblot competition: inhibition by peptides of the reaction of RA patient serum anti-filaggrin antibodies with human acid/neutral filaggrin; format: binding; conditions: peptide at 40 µl/ml, results stated identical for both antigens
[3] = one of the 2 RA sera tested (diluted 1/4000), detection with peroxidase-labelled goat anti-human IgG
[4] = the other of the 2 RA sera tested (diluted 1/4000)
[5] = one of the 2 RA sera tested (diluted 1/4000)
[6] = stated for each of the 2 RA sera (diluted 1/4000)

Row | Structure (SMILES) | marquage [1, 3] | marquage [1, 4] | marquage [2, 5] | marquage [2, 4] | marquage [1, 6] | marquage [2, 6]
1 | N=C(N)NCCC[C@H](NC(=O)[C@H](CO)NC(=O)[C@H](CO)NC(=O)[C@@H](N)CCC(=O)O)C(=O)N[C@@H](CC(=O)O)C(=O)NCC(=O)N[C@@H](CO)C(=O)N[C@@H](CCCNC(N)=O)C(=O)N[C@@H](Cc1c[nH]cn1)C(=O)N1CCC[C@H]1C(=O)N[C@@H](CCCNC(=N)N)C(=O)N[C@@H](CO)C(=O)N[C@@H](Cc1c[nH]cn1)C(=O)N[C@@H](CC(=O)O)C(=O)O [E12Dcit] (H-ESSRDGS[Cit]HPRSHD-OH) | faible marquage | aucun marquage | faible marquage | aucun marquage | – | –
2 | C[C@H](NC(=O)[C@H](CO)NC(=O)[C@H](CCC(N)=O)NC(=O)[C@@H](N)CCC(=O)O)C(=O)N[C@@H](CC(=O)O)C(=O)N[C@@H](CO)C(=O)N[C@@H](CO)C(=O)N[C@@H](CCCNC(N)=O)C(=O)N[C@@H](Cc1c[nH]cn1)C(=O)N[C@@H](CO)C(=O)NCC(=O)N[C@@H](CO)C(=O)NCC(=O)N[C@@H](Cc1c[nH]cn1)C(=O)O [E12Hcit] (H-EQSADSS[Cit]HSGSGH-OH) | faible marquage | aucun marquage | faible marquage | aucun marquage | – | –
3 | C[C@@H](O)[C@H](N)C(=O)NCC(=O)N[C@@H](CO)C(=O)N[C@@H](CO)C(=O)N[C@H](C(=O)NCC(=O)NCC(=O)N[C@@H](CCCNC(N)=O)C(=O)N[C@@H](CCC(N)=O)C(=O)NCC(=O)N[C@@H](CO)C(=O)N[C@@H](Cc1c[nH]cn1)C(=O)N[C@@H](Cc1c[nH]cn1)C(=O)N[C@@H](CCC(=O)O)C(=O)O)[C@@H](C)O [T12Ecit, reference compound] (H-TGSSTGG[Cit]QGSHHE-OH) | – | – | – | – | marquage intense | marquage intense

Reference: patent EP1041997B1, “USE OF CITRULLINE PEPTIDES DERIVED FROM FILAGGRIN FOR TREATING AUTOIMMUNE DISEASES” (UNIVERSITE PAUL SABATIER (TOULOUSE III), priority 1997, dated 2003)
